Measured data: PubChem BioAssay AID1259405 (NCATS, 2018)
Test: 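Knock-downs that lift recombinant protein yield in hamster ovary cells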 (primary screen). Cell system: Chinese hamster CHO-K1 ovary cells with stable secreted eGFP expression. Reagents: single siRNA against mouse genes, 0.8 pmol siRNA per well (2 µl of 400 nM stock). Time to read-out: 3 days. Measurement: 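Percent of the per-plate non-targeting control median for intracellular GFP per well by laser scanning cytometry and for cell viability by ATP luminescence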. Direction: GFP, % of control: higher = more GFP per well, higher productivity; viability (ATP), % of control: higher = more viable cells (more ATP). Active means: 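Called active when intracellular GFP, relative to negative control, is at or above 120%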.
The deposit covers about 50,000 reagents; below is an unselected part. About 4,000 of them (8%) count as active. 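Mouse siRNA library applied to hamster cells; one well for each siRNA.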 The numbers tell different reagents against one gene apart. No sequences are given here.

target gene | siRNA no. | GFP, % of control | viability (ATP), % of control | Call
Tbx5 (T-box 5) | 1 | 58.5 | 84.8 | inactive
Tbx5 (T-box 5) | 2 | 78.7 | 74.7 | inactive
Tbx5 (T-box 5) | 3 | 82 | 98.1 | inactive
Pdss1 (prenyl (solanesyl) diphosphate synthase, subunit 1) | 1 | 93.3 | 131 | inactive
Pdss1 (prenyl (solanesyl) diphosphate synthase, subunit 1) | 2 | 64.1 | 92.2 | inactive
Pdss1 (prenyl (solanesyl) diphosphate synthase, subunit 1) | 3 | 90.4 | 110 | inactive
H2-DMb2 (histocompatibility 2, class II, locus Mb2) | 1 | 39.4 | 50.3 | inactive
H2-DMb2 (histocompatibility 2, class II, locus Mb2) | 2 | 76.1 | 83.3 | inactive
H2-DMb2 (histocompatibility 2, class II, locus Mb2) | 3 | 13.2 | 36.1 | inactive
Lrig3 (leucine-rich repeats and immunoglobulin-like domains 3) | 1 | 56 | 51.6 | inactive
Lrig3 (leucine-rich repeats and immunoglobulin-like domains 3) | 2 | 91.7 | 92.8 | inactive
Lrig3 (leucine-rich repeats and immunoglobulin-like domains 3) | 3 | 54 | 86.9 | inactive
Ube2j2 (ubiquitin-conjugating enzyme E2J 2) | 1 | 103 | 102 | inactive
Ube2j2 (ubiquitin-conjugating enzyme E2J 2) | 2 | 66.4 | 68.7 | inactive
Ube2j2 (ubiquitin-conjugating enzyme E2J 2) | 3 | 72 | 75.9 | inactive
Adm2 (adrenomedullin 2) | 1 | 66.5 | 46.1 | inactive
Adm2 (adrenomedullin 2) | 2 | 90.9 | 83.2 | inactive
Adm2 (adrenomedullin 2) | 3 | 40.5 | 59.1 | inactive
Pcdhgc4 (protocadherin gamma subfamily C, 4) | 1 | 59 | 57.8 | inactive
Pcdhgc4 (protocadherin gamma subfamily C, 4) | 2 | 14.3 | 26.9 | inactive
Pcdhgc4 (protocadherin gamma subfamily C, 4) | 3 | 63.2 | 64.4 | inactive
Asphd2 (aspartate beta-hydroxylase domain containing 2) | 1 | 76.9 | 111 | inactive
Asphd2 (aspartate beta-hydroxylase domain containing 2) | 2 | 67.6 | 83.9 | inactive

A few values from the entries so far.
Entry for Adm2 (adrenomedullin 2) #3 in “viability (ATP), % of control”: 59.1
Pdss1 (prenyl (solanesyl) diphosphate synthase, subunit 1) #3, GFP, % of control: 90.4
Result of Pcdhgc4 (protocadherin gamma subfamily C, 4) #3 in “viability (ATP), % of control”: 64.4
Entry for Tbx5 (T-box 5) #3 in “viability (ATP), % of control”: 98.1
Tbx5 (T-box 5) #1, viability (ATP), % of control: 84.8
Result for Adm2 (adrenomedullin 2) #1 under “Call”: inactive

Additional entries follow:
target gene | siRNA no. | GFP, % of control | viability (ATP), % of control | Call
Lalba (lactalbumin, alpha) | 1 | 93.4 | 101 | inactive
Lalba (lactalbumin, alpha) | 2 | 42.5 | 76.5 | inactive
Lalba (lactalbumin, alpha) | 3 | 99 | 113 | inactive
Prl (prolactin) | 1 | 40.2 | 69.7 | inactive
Prl (prolactin) | 2 | 52.5 | 69 | inactive
Prl (prolactin) | 3 | 108 | 112 | inactive
Mchr1 (melanin-concentrating hormone receptor 1) | 1 | 42.4 | 27.9 | inactive
Mchr1 (melanin-concentrating hormone receptor 1) | 2 | 73 | 77.4 | inactive
Mchr1 (melanin-concentrating hormone receptor 1) | 3 | 108 | 82.7 | inactive
Trappc1 (trafficking protein particle complex 1) | 1 | 70.4 | 64.6 | inactive
Trappc1 (trafficking protein particle complex 1) | 2 | 125 | 114 | active
Trappc1 (trafficking protein particle complex 1) | 3 | 85.3 | 73.9 | inactive
Upp2 (uridine phosphorylase 2) | 1 | 97.8 | 116 | inactive
Upp2 (uridine phosphorylase 2) | 2 | 84.9 | 104 | inactive
Upp2 (uridine phosphorylase 2) | 3 | 101 | 106 | inactive
Icam5 (intercellular adhesion molecule 5, telencephalin) | 1 | 153 | 97.4 | active
Icam5 (intercellular adhesion molecule 5, telencephalin) | 2 | 83 | 71.2 | inactive
Rexo4 (REX4, 3'-5' exonuclease) | 1 | 78.1 | 41 | inactive
Rexo4 (REX4, 3'-5' exonuclease) | 2 | 114 | 97.3 | inactive
Rexo4 (REX4, 3'-5' exonuclease) | 3 | 71.5 | 78.6 | inactive
Acbd4 (acyl-Coenzyme A binding domain containing 4) | 1 | 72.9 | 63.4 | inactive
Acbd4 (acyl-Coenzyme A binding domain containing 4) | 2 | 103 | 67.8 | inactive
Acbd4 (acyl-Coenzyme A binding domain containing 4) | 3 | 60.8 | 62.5 | inactive
Eif4ebp3 | 1 | 63.2 | 53.5 | inactive
Eif4ebp3 | 2 | 59.7 | 54 | inactive
Eif4ebp3 | 3 | 107 | 65.1 | inactive
Vmn1r199 (vomeronasal 1 receptor 199) | 1 | 80.4 | 76.4 | inactive
Vmn1r199 (vomeronasal 1 receptor 199) | 2 | 74.4 | 81.8 | inactive
Vmn1r199 (vomeronasal 1 receptor 199) | 3 | 97.7 | 114 | inactive
Tagap (T cell activation Rho GTPase activating protein) | 1 | 87.8 | 94.4 | inactive
Tagap (T cell activation Rho GTPase activating protein) | 2 | 128 | 81.5 | active
Tagap (T cell activation Rho GTPase activating protein) | 3 | 107 | 75.1 | inactive
Chmp1a (charged multivesicular body protein 1A) | 1 | 65.9 | 51.4 | inactive
Chmp1a (charged multivesicular body protein 1A) | 2 | 98.7 | 66.8 | inactive
Chmp1a (charged multivesicular body protein 1A) | 3 | 108 | 47.3 | inactive
